The values below come from article PMC7216583 (Parasites & Vectors, 2020).

This experiment relates to Toxoplasma gondii RH-2F tachyzoites. In words: microbe, parasite or virus in culture. The conditions noted are these: 72 h, read-out: Parasite inhibition (%) mean.

Take `CC1=C(C(=O)O)N2C(=O)[C@@H](NC(=O)[C@H](N)c3ccccc3)[C@@H]2SC1` [Cephalexin (Cefalexin)]: the inhibition of growth at 5 µM was 2.9%.
